Assay results: article PMC8931250, “A SURF4-to-proteoglycan relay mechanism that mediates the sorting and secretion of a tagged variant of sonic hedgehog” (Proceedings of the National Academy of Sciences of the …, 2022)

Chains of the proteins cited; added tags and fusions are not shown. Residues count along the entry.
UniProt Q62226, residues 25-198: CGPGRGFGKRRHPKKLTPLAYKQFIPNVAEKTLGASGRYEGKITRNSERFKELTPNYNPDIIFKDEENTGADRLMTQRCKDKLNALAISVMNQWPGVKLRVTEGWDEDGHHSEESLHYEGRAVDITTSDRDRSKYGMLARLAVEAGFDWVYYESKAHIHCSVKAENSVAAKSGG
UniProt O15260: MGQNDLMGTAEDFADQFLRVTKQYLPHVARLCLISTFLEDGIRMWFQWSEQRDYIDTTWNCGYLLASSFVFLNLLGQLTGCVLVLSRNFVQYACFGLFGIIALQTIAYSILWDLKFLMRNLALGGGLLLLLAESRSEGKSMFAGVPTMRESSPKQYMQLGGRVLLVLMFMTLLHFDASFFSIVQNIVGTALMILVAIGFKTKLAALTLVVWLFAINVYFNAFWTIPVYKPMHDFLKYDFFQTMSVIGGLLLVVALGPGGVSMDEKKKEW
UniProt P23284, residues 34-216: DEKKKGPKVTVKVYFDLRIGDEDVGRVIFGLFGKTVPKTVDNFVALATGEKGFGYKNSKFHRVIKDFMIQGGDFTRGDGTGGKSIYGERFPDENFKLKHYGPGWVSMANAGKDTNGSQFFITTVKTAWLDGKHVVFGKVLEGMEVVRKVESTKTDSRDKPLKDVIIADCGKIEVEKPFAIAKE

B1: betaine-homocysteine S-methyltransferase (BHMT) (enzyme, UniProt Q93088 1-406)
chain: MPPVGGKKAKKGILERLNAGEIVIGDGGFVFALEKRGYVKAGPWTPEAAVEHPEAVRQLHREFLRAGSNVMQTFTFYASEDKLENRGNYVLEKISGQEVNEAACDIARQVADEGDALVAGGVSQTPSYLSCKSETEVKKVFLQQLEVFMKKNVDFLIAEYFEHVEEAVWAVETLIASGKPVAATMCIGPEGDLHGVPPGECAVRLVKAGASIIGVNCHFDPTISLKTVKLMKEGLEAARLKAHLMSQPLAYHTPDCNKQGFIDLPEFPFGLEPRVATRWDIQKYAREAYNLGVRYIGGCCGFEPYHIRAIAEELAPERGFLPPASEKHGSWGSGLDMHTKPWVRARARKEYWENLRIASGRPYNPSMSKPDGWGVTKGTAELMQQKEATTEQQLKELFEKQKFKSQ
B2: vacuolar protein sorting-associated protein 51 homolog (VPS51) (protein, UniProt Q9UID3 1-782)
chain: MAAAAAAGPSPGSGPGDSPEGPEGEAPERRRKAHGMLKLYYGLSEGEAAGRPAGPDPLDPTDLNGAHFDPEVYLDKLRRECPLAQLMDSETDMVRQIRALDSDMQTLVYENYNKFISATDTIRKMKNDFRKMEDEMDRLATNMAVITDFSARISATLQDRHERITKLAGVHALLRKLQFLFELPSRLTKCVELGAYGQAVRYQGRAQAVLQQYQHLPSFRAIQDDCQVITARLAQQLRQRFREGGSGAPEQAECVELLLALGEPAEELCEEFLAHARGRLEKELRNLEAELGPSPPAPDVLEFTDHGGSGFVGGLCQVAAAYQELFAAQGPAGAEKLAAFARQLGSRYFALVERRLAQEQGGGDNSLLVRALDRFHRRLRAPGALLAAAGLADAATEIVERVARERLGHHLQGLRAAFLGCLTDVRQALAAPRVAGKEGPGLAELLANVASSILSHIKASLAAVHLFTAKEVSFSNKPYFRGEFCSQGVREGLIVGFVHSMCQTAQSFCDSPGEKGGATPPALLLLLSRLCLDYETATISYILTLTDEQFLVQDQFPVTPVSTLCAEARETARRLLTHYVKVQGLVISQMLRKSVETRDWLSTLEPRNVRAVMKRVVEDTTAIDVQVGLLYEEGVRKAQSSDSSKRTFSVYSSSRQQGRYAPSYTPSAPMDTNLLSNIQKLFSERIDVFSPVEFNKVSVLTGIIKISLKTLLECVRLRTFGRFGLQQVQVDCHFLQLYLWRFVADEELVHLLLDEVVASAALRCPDPVPMEPSVVEVICERG

The molecules below were run against 3xHA-tagged ShhN (ShhN^1-198-HA) (not stated (human or mouse cDNA cloned)) (UniProt Q62226) (assay: affinity purification with mass spectrometry; lysates of HEK293T cells transfected with ShhN-HA (controls: untransfected cells, IGF2-HA) incubated with beads conjugated with HA antibodies; eluted proteins trypsin digested and analysed by mass spectrometry).
For “Surfeit locus protein 4 (SURF4), endogenous (from UniProt O15260 1-269) (receptor)”, the binding was “binds”.
“peptidyl-prolyl cis-trans isomerase B (PPIB) (from UniProt P23284 34-216) (enzyme)” was tested, and the binding was “binds”.
B1 was tested, and the binding was “binds”.
In the case of B2, the binding is reported as “binds”.

No constants are given. Whether binding was seen depends on the method and setting. Binding seen in cells or lysates may run through a third protein. Here binding means that the protein was enriched with, or labelled near, the bait; the list need not be complete.
